Test results: the supplement of paper PMC10663445
Structures can show the parent of a compound that is named as a salt. This is one part of the list. Many values rest on one well or one pass, so single values are uncertain.

system: hsa-miR-132-3p; assay: miR-132-3p level in NGN2-iNs after compound treatment (TMM-normalised, ComBat batch-corrected) (batch-corrected normalised expression (arbitrary units)); higher = higher miR-132-3p expression; conditions: 10 µM; 24 h; human iPSC-derived NGN2 neurons (BR43)

SMILES | miR-132-3p level in NGN2-iNs
CCN(CC)C(=O)c1ccc(C2=CC3(CCNCC3)Oc3cccc(O)c32)cc1 | 0.253
CNCC(O)c1ccc(O)cc1 (stereo not given) [Synephrine HCl] | -0.596
CNCC(O)c1ccc(O)cc1 (stereo not given) [Synephrine] | -0.469
CCOc1ccccc1-n1c(C(C)N2CCN(C(=O)COc3ccc(Cl)cc3)CC2)nc2ccccc2c1=O (stereo not given) [Erastin] | -0.736
CN1[C@@H]2CC[C@H]1C[C@@H](OC(=O)C(CO)c1ccccc1)C2 (stereo not given in full) [Atropine sulfate monohydrate] | -0.548
C[C@]12CCC(=O)C(O)=C1CC[C@@H]1[C@@H]2CC[C@]2(C)C(=O)CC[C@@H]12 [Formestane] | -0.915
Cc1sc2c(c1C)C(c1ccc(Cl)cc1)=N[C@@H](CC(=O)Nc1ccc(O)cc1)c1nnc(C)n1-2 | -0.728
CCC1(c2cccc(O)c2)CCCCN(C)C1 (stereo not given) [Meptazinol HCl] | -1.53
NCCc1c[nH]c2ccc(O)cc12 [Serotonin HCl] | -0.26
C/C=C(\C)C(=O)N[C@@H](c1ccccc1)[C@@H](O)C(=O)O[C@H]1C[C@@]2(O)[C@@H](OC(=O)c3ccccc3)[C@@H]3[C@]4(OC(C)=O)CO[C@@H]4C[C@H](O)[C@@]3(C)C(=O)[C@H](OC(C)=O)C(=C1C)C2(C)C [Cephalomannine] | -0.9
CCC(COC(=O)c1cc(OC)c(OC)c(OC)c1)(c1ccccc1)N(C)C (stereo not given) [Trimebutine] | -0.333
CC(=O)OC12COC1CC(O)C1(C)C(=O)C(O)C3=C(C)C(O)CC(O)(C(OC(=O)c4ccccc4)C21)C3(C)C (stereo not given) [10-Deacetylbaccatin-III] | -0.598
Cc1cc(C(=O)CN2CCCC2)c(C)n1-c1ccc(F)cc1 | -0.159
C#C[C@]1(O)C=C[C@H]2[C@@H]3CCC4=CC(=O)CC[C@@H]4[C@H]3CC[C@@]21CC [Gestodene] | -0.0347
Cc1cccc([C@H](C)c2c[nH]cn2)c1C [Dexmedetomidine] | 1.12
O=P1(NCCCl)OCCCN1CCCl (stereo not given) [Ifosfamide] | -0.455
O=S(=O)(F)Cc1ccccc1 | -1.11
O=C(O[C@H]1C[N+]2(CCCOc3ccccc3)CCC1CC2)C(O)(c1cccs1)c1cccs1 [Aclidinium Bromide] | 1.09

Reformatted in markdown: entries from further up

| SMILES | miR-132-3p level in NGN2-iNs |
| --- | --- |
| CC(=O)OC12COC1CC(O)C1(C)C(=O)C(O)C3=C(C)C(O)CC(O)(C(OC(=O)c4ccccc4)C21)C3(C)C (stereo not given) [10-Deacetylbaccatin-III] | -0.598 |
| Cc1cc(C(=O)CN2CCCC2)c(C)n1-c1ccc(F)cc1 | -0.159 |
| C#C[C@]1(O)C=C[C@H]2[C@@H]3CCC4=CC(=O)CC[C@@H]4[C@H]3CC[C@@]21CC [Gestodene] | -0.0347 |
| Cc1cccc([C@H](C)c2c[nH]cn2)c1C [Dexmedetomidine] | 1.12 |
| O=P1(NCCCl)OCCCN1CCCl (stereo not given) [Ifosfamide] | -0.455 |
| O=S(=O)(F)Cc1ccccc1 | -1.11 |
| O=C(O[C@H]1C[N+]2(CCCOc3ccccc3)CCC1CC2)C(O)(c1cccs1)c1cccs1 [Aclidinium Bromide] | 1.09 |

Continued.

SMILES | miR-132-3p level in NGN2-iNs
CC(C)(C)[C@]1(O)CC2OC(=O)CC23C(=O)OC2OC(=O)[C@H](O)C231 (stereo not given in full) [Bilobalide] | -0.91
CC[C@@H]1/C=C/C=C/C[C@H](C)[C@H](O)[C@](C)(O)C(=O)[C@H](C)[C@@H](O)[C@H](C)C(=O)[C@H](C)[C@@H](O)[C@H](C)/C=C/C(=O)O[C@H]2[C@@H](C)[C@@H](CC1)O[C@@]1(CC[C@@H](C)[C@@H](C[C@H](C)O)O1)[C@@H]2C [Oligomycin A] | 0.918
O=C(Oc1ccc([N+](=O)[O-])cc1)N1CCC(C(O)(c2ccc3c(c2)OCO3)c2ccc3c(c2)OCO3)CC1 | -0.622
Cc1cccc(C)c1NC1=NCCCS1 [Xylazine HCl] | -0.291
O=C1CCC[C@@H]2[C@H]3CCCN4CCC[C@@H](CN12)[C@@H]34 [(+)-Matrine] | 1.11
CCC1(c2ccc(N)cc2)CCC(=O)NC1=O (stereo not given) [Aminoglutethimide] | 2.42
CCN(C)C(=O)Oc1cccc([C@H](C)N(C)C)c1 [Rivastigmine Tartrate] | 0.917
C[N+]1(C)[C@@H]2C[C@@H](OC(=O)[C@H](CO)c3ccccc3)C[C@H]1[C@@H]1O[C@@H]12 [Methscopolamine] | -0.428
C[C@]12CC[C@H](O)C[C@@H]1CC[C@@H]1[C@@H]2CC[C@]2(C)C(=O)CC[C@@H]12 [Epiandrosterone] | -0.538
NCC(O)c1ccc(O)cc1 (racemic) [(+,-)-Octopamine HCl] | -0.53
C[C@@H]1O[C@@H](O[C@H]2C[C@@H](O)[C@]3(CO)[C@H]4[C@H](O)C[C@]5(C)[C@@H](C6=CC(=O)OC6)CC[C@]5(O)[C@@H]4CC[C@]3(O)C2)[C@H](O)[C@H](O)[C@H]1O [Ouabain] | 5.85
CC12NC(Cc3ccccc31)c1ccccc12 (single isomer, unassigned; (-)) [(-)-Dizocilpine (MK 801) Maleate] | -0.262
CC(=O)Nc1ccc(OC[C@](C)(O)C(=O)Nc2ccc([N+](=O)[O-])c(C(F)(F)F)c2)cc1 [Andarine] | 0.219
C[C@](O)(COc1ccc(C#N)cc1)C(=O)Nc1ccc(C#N)c(C(F)(F)F)c1 [Ostarine (GTx-024, MK-2866 )] | -0.614
C[C@]12CC[C@H]3[C@@H](CC[C@@]45O[C@@H]4C(O)=C(C#N)C[C@]35C)[C@@H]1CC[C@@H]2O [Trilostane] | 0.721
Cc1c(N)nc(C(CC(N)=O)NCC(N)C(N)=O)nc1C(=O)NC(C(=O)NC(C)C(O)C(C)C(=O)NC(C(=O)NCCc1nc(-c2nc(C(=O)NCCC[S+](C)C)cs2)cs1)C(C)O)C(O[C@@H]1O[C@@H](CO)[C@@H](O)[C@H](O)[C@@H]1O[C@H]1O[C@H](CO)[C@@H](O)[C@H](OC(N)=O)[C@@H]1O)c1cnc[nH]1 (stereo not given in full) [Bleomycin sulfate] | 0.548
CN1C2CC(O)CC1C1OC12 (stereo not given) [Scopine] | -0.589
